Publication PMC6817756
The exact form of at least one protein or probe is not confirmed. At least one result comes from cells or an extract, where the contact may be indirect. For part of these data: At least one verdict was read from the data and is not stated in words by the source. For part of these data: Tags and fusion partners may be left off the protein sequences shown.

Legend:
Assay in all cases: pull-down MS
MYC, endogenous = MYC, endogenous (UniProt P01106); settings: competed by Omomyc, EC50 321 nM; pulldown: 50 mM Tris-HCl pH 7.5, 5% glycerol, 1.5 mM MgCl2, 150 mM NaCl, 1 mM DTT, IGEPAL, 4 C; protein in an extract; label: 5'-biotin (BtnTg) on strand 1
MXD3, endogenous = target: T1, MXD3, endogenous (UniProt Q9BW11); settings: competed by Omomyc; pulldown: 50 mM Tris-HCl pH 7.5, 5% glycerol, 1.5 mM MgCl2, 150 mM NaCl, 1 mM DTT, IGEPAL, 4 C; protein in an extract; label: 5'-biotin (BtnTg) on strand 1
T1 sequence (looked up, limits assumed): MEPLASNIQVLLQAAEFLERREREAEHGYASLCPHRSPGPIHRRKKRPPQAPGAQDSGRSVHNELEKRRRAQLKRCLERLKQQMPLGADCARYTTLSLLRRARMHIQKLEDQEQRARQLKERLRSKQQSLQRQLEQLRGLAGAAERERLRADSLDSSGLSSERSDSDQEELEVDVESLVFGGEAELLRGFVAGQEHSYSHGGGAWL

MAZ, endogenous = target: T2, MAZ, endogenous (UniProt P56270); settings: competed by Omomyc; pulldown: 50 mM Tris-HCl pH 7.5, 5% glycerol, 1.5 mM MgCl2, 150 mM NaCl, 1 mM DTT, IGEPAL, 4 C; protein in an extract; label: 5'-biotin (BtnTg) on strand 1
T2 sequence (looked up, limits assumed): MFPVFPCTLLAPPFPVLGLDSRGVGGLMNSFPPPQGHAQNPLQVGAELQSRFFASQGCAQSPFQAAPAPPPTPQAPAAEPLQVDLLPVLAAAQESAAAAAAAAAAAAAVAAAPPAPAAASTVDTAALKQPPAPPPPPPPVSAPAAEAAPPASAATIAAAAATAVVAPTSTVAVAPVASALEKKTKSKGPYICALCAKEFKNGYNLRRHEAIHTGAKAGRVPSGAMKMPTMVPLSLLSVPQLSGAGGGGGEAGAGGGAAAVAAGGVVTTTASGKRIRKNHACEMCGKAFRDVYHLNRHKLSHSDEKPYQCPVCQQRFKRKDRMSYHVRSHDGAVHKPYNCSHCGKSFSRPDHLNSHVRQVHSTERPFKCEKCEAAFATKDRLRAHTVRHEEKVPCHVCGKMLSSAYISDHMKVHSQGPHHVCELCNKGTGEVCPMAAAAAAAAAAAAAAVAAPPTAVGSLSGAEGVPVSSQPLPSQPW

MAX, endogenous = MAX, endogenous (UniProt P61244); settings: competed by Omomyc, EC50 297 nM; pulldown: 50 mM Tris-HCl pH 7.5, 5% glycerol, 1.5 mM MgCl2, 150 mM NaCl, 1 mM DTT, IGEPAL, 4 C; protein in an extract; label: 5'-biotin (BtnTg) on strand 1
WDR5, endogenous = WDR5, endogenous (UniProt P61964); settings: competed by Omomyc, EC50 213 nM, likely indirect; pulldown: 50 mM Tris-HCl pH 7.5, 5% glycerol, 1.5 mM MgCl2, 150 mM NaCl, 1 mM DTT, IGEPAL, 4 C; protein in an extract; label: 5'-biotin (BtnTg) on strand 1
MGA, endogenous = MGA, endogenous (UniProt Q8IWI9); settings: competed by Omomyc; pulldown: 50 mM Tris-HCl pH 7.5, 5% glycerol, 1.5 mM MgCl2, 150 mM NaCl, 1 mM DTT, IGEPAL, 4 C; protein in an extract; label: 5'-biotin (BtnTg) on strand 1
MXI1, endogenous = target: T3, MXI1, endogenous (UniProt P50539); settings: competed by Omomyc; pulldown: 50 mM Tris-HCl pH 7.5, 5% glycerol, 1.5 mM MgCl2, 150 mM NaCl, 1 mM DTT, IGEPAL, 4 C; protein in an extract; label: 5'-biotin (BtnTg) on strand 1
T3 sequence (looked up, limits assumed): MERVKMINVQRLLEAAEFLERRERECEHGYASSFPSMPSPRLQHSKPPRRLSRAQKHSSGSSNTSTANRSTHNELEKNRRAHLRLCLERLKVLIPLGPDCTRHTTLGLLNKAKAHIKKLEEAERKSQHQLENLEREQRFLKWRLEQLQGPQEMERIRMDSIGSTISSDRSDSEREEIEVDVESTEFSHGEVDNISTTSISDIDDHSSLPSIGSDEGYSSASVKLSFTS

MNT, endogenous = target: T4, MNT, endogenous (UniProt Q99583); settings: competed by Omomyc; pulldown: 50 mM Tris-HCl pH 7.5, 5% glycerol, 1.5 mM MgCl2, 150 mM NaCl, 1 mM DTT, IGEPAL, 4 C; protein in an extract; label: 5'-biotin (BtnTg) on strand 1
T4 sequence (looked up, limits assumed): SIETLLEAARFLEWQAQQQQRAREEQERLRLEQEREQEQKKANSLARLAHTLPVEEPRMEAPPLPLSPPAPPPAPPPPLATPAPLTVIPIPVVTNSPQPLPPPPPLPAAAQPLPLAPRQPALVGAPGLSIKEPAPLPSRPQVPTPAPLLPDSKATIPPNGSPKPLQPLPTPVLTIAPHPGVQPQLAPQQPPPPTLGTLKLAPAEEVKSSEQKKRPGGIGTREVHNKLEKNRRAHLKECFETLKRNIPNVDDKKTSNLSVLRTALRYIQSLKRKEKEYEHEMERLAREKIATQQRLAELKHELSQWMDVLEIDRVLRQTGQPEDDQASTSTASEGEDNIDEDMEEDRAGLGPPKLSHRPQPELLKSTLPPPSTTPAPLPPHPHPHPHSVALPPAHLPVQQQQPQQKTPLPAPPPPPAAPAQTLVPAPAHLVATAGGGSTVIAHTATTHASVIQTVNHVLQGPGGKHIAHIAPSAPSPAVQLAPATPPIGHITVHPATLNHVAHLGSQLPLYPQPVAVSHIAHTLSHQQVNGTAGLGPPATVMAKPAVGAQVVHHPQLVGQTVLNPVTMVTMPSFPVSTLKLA

KMT2A, endogenous = settings: competed by Omomyc, EC50 196 nM, likely indirect; pulldown: 50 mM Tris-HCl pH 7.5, 5% glycerol, 1.5 mM MgCl2, 150 mM NaCl, 1 mM DTT, IGEPAL, 4 C; protein in an extract; label: 5'-biotin (BtnTg) on strand 1

Measured: binding result

CCCCCACCACGTGGTGCCTGA (double strand) [biotinylated MYC E box]
binds: all assays above
